Assay results: publication PMC8389370

How the values were obtained:
Test in all cases: co-IP; HEK293T cells transfected with GFP-tagged bait, lysed 24 h post-transfection, captured on GFP affinity resin (GFP-TRAP), SDS-PAGE and immunoblot of endogenous partners
[1] = molecular target: pUL21 C-terminal domain, GFP attached to the carboxy terminus (HSV-1 strain KOS)
[2] = molecular target: pUL21 C-terminal domain, GFP fused to the start of the domain (HSV-1 strain KOS)
[3] = molecular target: pORF38-GFP, the VZV homologue of pUL21 with a C-terminal GFP tag (varicella-zoster virus isolate HJ0)

B1: ceramide-transport protein CERT, endogenous (protein, UniProt Q9Y5P4 1-624)
chain: MSDNQSWNSSGSEEDPETESGPPVERCGVLSKWTNYIHGWQDRWVVLKNNALSYYKSEDETEYGCRGSICLSKAVITPHDFDECRFDISVNDSVWYLRAQDPDHRQQWIDAIEQHKTESGYGSESSLRRHGSMVSLVSGASGYSATSTSSFKKGHSLREKLAEMETFRDILCRQVDTLQKYFDACADAVSKDELQRDKVVEDDEDDFPTTRSDGDFLHSTNGNKEKLFPHVTPKGINGIDFKGEAITFKATTAGILATLSHCIELMVKREDSWQKRLDKETEKKRRTEEAYKNAMTELKKKSHFGGPDYEEGPNSLINEEEFFDAVEAALDRQDKIEEQSQSEKVRLHWPTSLPSGDAFSSVGTHRFVQKPYSRSSSMSSIDLVSASDDVHRFSSQVEEMVQNHMTYSLQDVGGDANWQLVVEEGEMKVYRREVEENGIVLDPLKATHAVKGVTGHEVCNYFWNVDVRNDWETTIENFHVVETLADNAIIIYQTHKRVWPASQRDVLYLSVIRKIPALTENDPETWIVCNFSVDHDSAPLNNRCVRAKINVAMICQTLVSPPEGNQEISRDNILCKITYVANVNPGGWAPASVLRAVAKREYPKFLKRFTSYVQEKTAGKPILF
For B1, the binding [1] was “binds”, the binding [2] was “no binding” and the binding [3] was “no binding”.

These are yes or no findings as the source states them, for the method shown. Binding seen in cells or lysates may run through a third protein. For part of these data: Binding calls can cover weak binding; strength is not graded here.
